No constants are given. Whether binding was seen depends on the method and setting. Binding seen in cells or lysates may run through a third protein.
Key:
[1] = biological target: FLAG-CTR∆ESS (full-length) (human) (UniProt P30988); assay: proximity ligation; in situ PLA (Duolink) on fixed PC cells (PC-3CTRwt, PC-3CTR∆ESS, LNCaP) with anti-ZO-1 and anti-CTR sera; with/without 50 nM CT for 30 seconds; dots per cell counted
[2] = biological target: GST-CTR-C∆ESS fusion protein (intracellular domain of CTR∆ESS, aa 441–476) (human) (UniProt P30988); assay: pull-down; GST fusion proteins (2 μg) on glutathione-Sepharose 4B incubated with PC-3 cell lysate for 6 h at 4 °C, eluted with 5 mM reduced glutathione; ZO-1 immunoblot; only the target purified
[3] = biological target: FLAG-CTR∆ESS (full-length) (human) (UniProt P30988); assay: co-IP; PC-31 (and PC-3) cells stably expressing FLAG-CTRwt or FLAG-CTR∆ESS, serum-starved, with/without CT (0.5–50 nM, 3 minutes); anti-FLAG EZ-view beads, eluted with FLAG peptide; ZO-1 immunoblot

By UniProt entry, the sequences of proteins in these tests, tags left out. Where a name states a change or a piece, a line headed by the entry shows the natural chain unless it says otherwise.
UniProt P30988: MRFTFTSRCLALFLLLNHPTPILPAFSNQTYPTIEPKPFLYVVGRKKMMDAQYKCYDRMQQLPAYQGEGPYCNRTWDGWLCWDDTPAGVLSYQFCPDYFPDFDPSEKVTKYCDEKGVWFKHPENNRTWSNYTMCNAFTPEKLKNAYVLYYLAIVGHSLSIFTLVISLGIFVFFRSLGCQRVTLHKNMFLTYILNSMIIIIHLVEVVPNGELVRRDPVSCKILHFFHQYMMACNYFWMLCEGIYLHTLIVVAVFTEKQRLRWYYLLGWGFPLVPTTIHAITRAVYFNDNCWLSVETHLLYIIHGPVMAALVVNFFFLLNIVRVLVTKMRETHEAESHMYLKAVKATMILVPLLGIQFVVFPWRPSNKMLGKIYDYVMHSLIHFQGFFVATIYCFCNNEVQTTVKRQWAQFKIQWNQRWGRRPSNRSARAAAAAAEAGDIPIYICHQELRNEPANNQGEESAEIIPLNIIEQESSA
UniProt Q07157: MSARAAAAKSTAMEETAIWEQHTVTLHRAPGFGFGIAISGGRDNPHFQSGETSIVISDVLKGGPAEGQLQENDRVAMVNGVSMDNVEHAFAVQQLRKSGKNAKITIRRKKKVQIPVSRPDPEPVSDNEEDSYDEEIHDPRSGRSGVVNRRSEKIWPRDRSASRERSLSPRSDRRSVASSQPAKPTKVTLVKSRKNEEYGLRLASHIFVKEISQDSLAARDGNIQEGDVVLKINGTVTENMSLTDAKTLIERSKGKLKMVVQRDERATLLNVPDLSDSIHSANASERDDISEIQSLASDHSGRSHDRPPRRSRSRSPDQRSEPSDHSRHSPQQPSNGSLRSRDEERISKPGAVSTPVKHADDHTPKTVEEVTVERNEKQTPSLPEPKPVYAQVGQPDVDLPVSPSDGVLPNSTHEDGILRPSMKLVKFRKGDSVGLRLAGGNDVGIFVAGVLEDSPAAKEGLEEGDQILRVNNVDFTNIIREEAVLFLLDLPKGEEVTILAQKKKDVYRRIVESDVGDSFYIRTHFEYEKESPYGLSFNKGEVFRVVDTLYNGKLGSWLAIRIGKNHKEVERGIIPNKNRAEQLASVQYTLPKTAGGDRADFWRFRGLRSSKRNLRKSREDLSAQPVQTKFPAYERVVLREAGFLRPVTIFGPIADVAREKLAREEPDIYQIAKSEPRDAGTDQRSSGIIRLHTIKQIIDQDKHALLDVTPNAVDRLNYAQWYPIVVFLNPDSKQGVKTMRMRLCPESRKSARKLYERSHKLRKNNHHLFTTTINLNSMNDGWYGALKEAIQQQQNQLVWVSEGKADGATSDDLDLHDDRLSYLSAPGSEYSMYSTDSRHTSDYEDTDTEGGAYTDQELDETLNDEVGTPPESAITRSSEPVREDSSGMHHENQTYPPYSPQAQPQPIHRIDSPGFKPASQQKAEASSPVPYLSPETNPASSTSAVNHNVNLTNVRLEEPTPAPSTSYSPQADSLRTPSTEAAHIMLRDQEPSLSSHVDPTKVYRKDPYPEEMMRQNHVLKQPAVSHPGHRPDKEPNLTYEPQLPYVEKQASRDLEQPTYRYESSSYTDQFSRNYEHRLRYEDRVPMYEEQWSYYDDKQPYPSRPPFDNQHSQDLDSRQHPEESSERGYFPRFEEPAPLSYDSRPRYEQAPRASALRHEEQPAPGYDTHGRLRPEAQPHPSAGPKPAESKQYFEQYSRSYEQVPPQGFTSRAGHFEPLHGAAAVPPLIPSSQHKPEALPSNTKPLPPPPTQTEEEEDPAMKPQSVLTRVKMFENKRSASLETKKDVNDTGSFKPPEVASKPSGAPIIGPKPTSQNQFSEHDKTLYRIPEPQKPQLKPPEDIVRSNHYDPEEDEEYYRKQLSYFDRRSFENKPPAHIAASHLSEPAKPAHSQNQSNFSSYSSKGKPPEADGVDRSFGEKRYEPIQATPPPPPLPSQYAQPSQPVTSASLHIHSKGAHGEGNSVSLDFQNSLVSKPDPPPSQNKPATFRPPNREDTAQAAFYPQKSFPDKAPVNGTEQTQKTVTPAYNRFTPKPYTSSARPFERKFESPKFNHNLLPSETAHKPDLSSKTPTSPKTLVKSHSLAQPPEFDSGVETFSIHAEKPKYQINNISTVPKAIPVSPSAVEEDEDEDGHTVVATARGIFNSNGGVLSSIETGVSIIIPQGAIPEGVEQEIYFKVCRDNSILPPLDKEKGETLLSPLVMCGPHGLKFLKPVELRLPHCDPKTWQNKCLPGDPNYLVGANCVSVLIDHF

- binding [1]: no binding
- binding [2]: no binding
- binding [3]: no binding
Substance: Zonula Occludens-1 (ZO-1), endogenous (from UniProt Q07157 1-1748)

Source: article PMC4775073
